Test results from article PMC3754431.
These are yes or no findings as the source states them, for the method shown. Binding seen in cells or lysates may run through a third protein. Some entries that bind do so weakly or less than the wild type.

The chains behind the UniProt entries cited, without tags or fusion partners.
UniProt P06791: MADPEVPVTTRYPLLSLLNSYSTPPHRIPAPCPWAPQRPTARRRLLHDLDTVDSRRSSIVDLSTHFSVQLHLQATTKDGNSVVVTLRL
UniProt P04016: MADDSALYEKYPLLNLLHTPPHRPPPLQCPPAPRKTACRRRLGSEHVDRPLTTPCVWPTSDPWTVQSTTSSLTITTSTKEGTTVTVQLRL
UniProt P08670: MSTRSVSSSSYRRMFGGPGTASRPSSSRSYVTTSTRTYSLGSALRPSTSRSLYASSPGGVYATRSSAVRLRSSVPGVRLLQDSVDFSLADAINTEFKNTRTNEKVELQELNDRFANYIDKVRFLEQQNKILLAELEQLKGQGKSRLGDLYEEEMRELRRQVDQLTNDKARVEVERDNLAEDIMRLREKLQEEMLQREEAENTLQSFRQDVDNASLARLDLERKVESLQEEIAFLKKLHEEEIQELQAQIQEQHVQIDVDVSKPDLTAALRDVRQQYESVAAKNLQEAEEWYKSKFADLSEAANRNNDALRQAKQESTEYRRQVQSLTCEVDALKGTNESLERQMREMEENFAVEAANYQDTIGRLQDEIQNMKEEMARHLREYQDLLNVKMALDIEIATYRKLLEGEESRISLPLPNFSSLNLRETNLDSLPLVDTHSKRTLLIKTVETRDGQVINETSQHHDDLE

Experiments:
[1] = biological target: FLAG-18E1^E4 (human papillomavirus type 18) (UniProt P06791); assay: co-IP; lysates of 293T cells transfected with FLAG-18E1^E4; anti-FLAG antibody and Protein-G agarose in NET-Gel Buffer, 4°C, ≥ 4 h; immunoblot of the endogenous partner
[2] = biological target: GST-tagged 18E1^E4 (human papillomavirus type 18) (UniProt P06791); assay: pull-down; purified GST-fusion protein (10 μg) with 35S-Met labeled in vitro translated vimentin; 20 mM Tris-HCl pH 7.5, 50 mM NaCl, 4 mM MgCl2, 0.5% Nonidet P-40, 2% skim milk, 2 mM DTT; 4°C, 2 h; SDS-PAGE, detected with BAS5000; only the target purified
[3] = biological target: GST-tagged 11E1^E4 (human papillomavirus type 11) (UniProt P04016); assay: as above

| Substance | binding [1] | binding [2] | binding [3] |
| --- | --- | --- | --- |
| endogenous vimentin (from UniProt P08670 1-466) | binds | – | – |
| 35S-methionine labeled vimentin obtained by in vitro translation (from UniProt P08670 1-466) | – | binds weakly | binds weakly |
